Reference: PMC12670160, “A drug-repurposing screen of FDA- and EMA-approved drugs identifies two NF-κB inhibitors active against eumycetoma” (Journal of Antimicrobial Chemotherapy, 2025)
Where a name gives a salt, the structure may show the parent alone. About 130 (2.5%) of roughly 5,300 compounds showed an effect of 50% or more. The list shows a part of the results.

test system: M. mycetomatis strain mm55; details: m. mycetomatis hyphae, 96 h, 2 µM

SMILES | % viability
Cn1cc(C(=O)c2cccc3ccccc23)cc1C(=O)O [ONC0003763, napirimus] | 99.27%
OC(c1ccccc1)(c1ccccc1)C1CCNCC1 [ONC0004811, azacyclonol] | 81.59%
Clc1ccc(C(c2ccc(Cl)cc2)C(Cl)(Cl)Cl)cc1 [ONC0004078, 44ddt] | 116.6%
COC(=O)/C=C/C(=O)N[C@@H]1CC[C@@]2(O)[C@H]3Cc4ccc(O)c5c4[C@@]2(CCN3CC2CC2)[C@H]1O5 [ONC0001459, betafunaltrexamine] | 48.02%
COc1cc(OC)c(OC)cc1C=O [ONC0004768, asaraldehyde asaronaldehyde] | 73.41%
CNC(=O)N(C)N=O [ONC0003332, nitrosodimethylurea] | 73.1%
CCC1(C)CC(=O)NC(=O)C1 [ONC0002781, bemegride] | 128.5%
CCCC(C)(COC(N)=O)COC(=O)NC(C)C (stereo not shown) [ONC0000784, carisoprodol] | 82.1%
O=C1Nc2ccc(Cl)c3c2C1(CCCCN1CC=C(c2ccc(Cl)cc2)CC1)CCC3 (stereo not shown) [ONC0000257, dr4485] | 73.2%
NC(=O)CN1CC(c2ccccc2)CC1=O (stereo not shown) [ONC0001209, phenylpiracetam] | 95.67%
C[C@]12CC[C@@H](O)C[C@H]1CC[C@@H]1[C@@H]2CC[C@]2(C)C(=O)CC[C@@H]12 [ONC0002860, 3alphahydroxy5betaandrostan17one] | 111.6%
O=C(Nc1ccc(Br)cc1)c1cc(Br)cc(Br)c1O [ONC0002986, tribomsalan] | 104.9%
CC(=O)Nc1cc([As](=O)(O)O)ccc1O [ONC0003129, acetarsol] | 76.19%
NC(C(=O)O)c1cc(=O)[nH]o1 (stereo not shown) [ONC0001481, ibotenicacid] | 54.38%
CCCCCCCCC(=O)NCc1ccc(O)c(OC)c1 [ONC0005301, nonivamide] | 102.5%
CCC(=O)OC(Cc1ccccc1)(c1ccccc1)C(C)CN(C)C (stereo not shown) [ONC0002923, levopropoxyphene] | 67.59%
O=[N+]([O-])c1ccc(O)c([N+](=O)[O-])c1 [ONC0003307, 24dinitrophenol] | 82.81%
N[C@@]1(C(=O)O)CC[C@H](C(=O)O)C1.N[C@]1(C(=O)O)CC[C@@H](C(=O)O)C1 [ONC0000225, cisacpd] | 82.26%
Nc1cc2c3ccccc3ccc2c2ccccc12 [ONC0002168, 6aminochrysene] | 84.82%

Quoted at random: two records from the list
SMILES | % viability
NC(=O)CN1CC(c2ccccc2)CC1=O (stereo not shown) [ONC0001209, phenylpiracetam] | 95.67%
Clc1ccc(C(c2ccc(Cl)cc2)C(Cl)(Cl)Cl)cc1 [ONC0004078, 44ddt] | 116.6%

(further entries)

SMILES | % viability
Cc1cc(N2CCN([C@@H]3CN[C@H](C(=O)N4CCSC4)C3)CC2)n(-c2ccccc2)n1 [ONC0001798, teneligliptin] | 125.9%
COc1ccc(CN(C(=O)[C@@H](N)Cc2c(C)cc(C(N)=O)cc2C)[C@@H](C)c2nc(-c3ccccc3)c[nH]2)cc1C(=O)O [ONC0002092, eluxadoline] | 69.65%
c1ccc(CC(c2ccccc2)N2CCCCC2)cc1 (stereo not shown) [ONC0000060, 112diphenylethylpiperidine] | 45.07%
CNC(C)(C)Cc1ccccc1 [ONC0002830, mephentermine sulfate] | 106.4%
C[C@]12CC[C@H](O)C[C@@H]1CC[C@@H]1[C@H]2CC[C@]2(C)C(=O)CC[C@@H]12 [ONC0005247, epiandrosterone 3androsterone] | 106.6%
C[C@]12CCC(=O)C=C1CC[C@@H]1[C@@H]2CC[C@@]2(C)[C@H]1CC[C@]2(C)O [ONC0001781, 17ü¾Œ–Œ¼methyltestosterone] | 115.9%
C#CCOC(=O)C1=CCCN(C)C1 [ONC0002535, arecaidinepropargylester] | 66.39%
CNC(C)CC1CCCCC1 (stereo not shown) [ONC0002340, propylhexedrine] | 61.82%
COc1cccc2c1C(=O)c1c(O)c3c(c(O)c1C2=O)C[C@@](O)(C(=O)CO)C[C@@H]3O[C@H]1C[C@H](N2CCO[C@H](OC)C2)[C@H](O)[C@H](C)O1 [ONC0001900, nemorubicin] | 89.6%
CN1C[C@@H]2c3ccccc3Oc3ccc(Cl)cc3[C@H]2C1.CN1C[C@H]2c3ccccc3Oc3ccc(Cl)cc3[C@@H]2C1 [ONC0000731, asenapine maleate] | 74.48%
COc1ccc(C(=O)c2c(C)n(CCN3CCOCC3)c3ccccc23)cc1 [ONC0001936, pravadoline] | 72.97%
c1cc2c(c(N3CCNCC3)c1)OCCO2 [ONC0001200, eltoprazine hydrochloride] | 81.55%
CC(C)(N)Cc1ccccc1 [ONC0002302, phentermine] | 88.57%
CC(C)(C)OC(=O)c1ncn2c1[C@@H]1CCCN1C(=O)c1c(Br)cccc1-2 [ONC0000814, bretazenil] | 65.32%
C/C1=C/C[C@@H](/C(C)=C/c2csc(C)n2)OC(=O)C[C@H](O)C(C)(C)C(=O)[C@H](C)[C@@H](O)[C@@H](C)CCC1 [ONC0001804, epothilone d] | 116.1%
CCC(=O)O[C@H]1CCC2C3CCC4=CC(=O)CC[C@]4(C)C3CC[C@@]21C (stereo partly shown) [ONC0003302, testosterone propionate] | 66.81%
C[C@H]1O[C@@H](O[C@H]2CC[C@@]3(C)[C@H](CC[C@@H]4[C@@H]3C[C@@H](O)[C@]3(C)[C@@H](C5=CC(=O)OC5)CC[C@]43O)C2)C[C@H](O)[C@@H]1O[C@H]1C[C@H](O)[C@H](O[C@H]2C[C@H](O)[C@H](O[C@@H]3O[C@H](CO)[C@@H](O)[C@H](O)[C@H]3O)[C@@H](C)O2)[C@@H](C)O1 [ONC0000269, deslanoside] | 75.34%
O=C(Oc1ccc([N+](=O)[O-])cc1)N1CCN(Cc2cccc(Oc3ccccc3)c2)CC1 [ONC0000188, jzl195] | 87.43%
